Experimental data from article PMC12415261 (Proceedings of the National Academy of Sciences of the …, 2025).
No constants are given. Whether binding was seen depends on the method and setting. Some binding calls cover weakened binding; strength is not graded here. For some assays here: Tags and fused reporters may be left off the sequences shown.

Sequences of proteins named here, by UniProt entry; tags and fusion partners are left off. Residues count along the entry.
UniProt P22004, residues 375-513: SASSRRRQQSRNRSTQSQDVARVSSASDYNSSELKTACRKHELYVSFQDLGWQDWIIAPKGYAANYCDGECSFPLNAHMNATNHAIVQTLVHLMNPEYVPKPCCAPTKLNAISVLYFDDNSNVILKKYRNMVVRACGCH

Experiments:
ALK2-ActRIIB-Fc = target: T1, ALK2-ActRIIB-Fc (human, UniProt Q04771 21-123; Q13705 19-133); experiment: SEC; trap (with Fc or IdeS-digested) mixed with BMP6; Superdex 200 increase; for the digested traps 2.1:1 trap:ligand, 30 min at room temperature; both purified
T1 construct: signal peptide in the construct; extracellular domain of human ActRIIB, residues 1 to 133; also called heterodimeric trap; ActRIIB-ALK2; source: CHO cells, cotransfected, purified (MabSelect SuRe protein A with pH gradient, SEC); not shown: Fc (IgG1), C-terminal, kept; copies: 1 + 1

[1] = target: T2, ALK2-ActRIIB (cleaved from the Fc-domain, still joined by the hinge disulfides) (human) (UniProt Q04771+Q13705); experiment: as above
T2 sequence 1: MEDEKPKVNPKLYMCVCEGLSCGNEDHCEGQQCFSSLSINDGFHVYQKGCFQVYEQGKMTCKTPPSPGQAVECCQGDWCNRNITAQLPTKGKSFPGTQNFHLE
T2 sequence 2: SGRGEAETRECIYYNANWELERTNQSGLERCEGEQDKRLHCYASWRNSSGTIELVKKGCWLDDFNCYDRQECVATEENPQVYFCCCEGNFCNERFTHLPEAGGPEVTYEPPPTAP

[2] = target: T3, ActRIIB-ECD (the ActRIIB arm of ALK2-ActRIIB and ALK3-ActRIIB in the cryoEM structures) (human) (UniProt Q13705); experiment: cryo-EM structure; IdeS-digested trap with BMP6, complex purified by SEC, ~3 mg/mL, 0.15% PMAL-C8 amphipol; C2 symmetry applied; both purified
T3 sequence: T2 sequence 2

[3] = target: Recombinant human BMP6, mammalian expressed (glycosylated) (human) (UniProt P22004); experiment: as above
[4] = target: T2, ALK2-ActRIIB (cleaved from the Fc-domain, still joined by the hinge disulfides) (human); experiment: as above

binding (ALK2-ActRIIB-Fc): binds
binding [1]: binds
binding [2]: binds
binding [3]: binds
binding [4]: binds
Substance: Recombinant human BMP6, mammalian expressed (glycosylated) (from UniProt P22004 375-513) (ligand)
